Drug key:
VX-702: NC(=O)c1ccc(N(C(N)=O)c2c(F)cccc2F)nc1-c1ccc(F)cc1F at 400 nM
enzastaurin: Cn1cc(C2=C(c3cn(C4CCN(Cc5ccccn5)CC4)c4ccccc34)C(=O)NC2=O)c2ccccc21 at 800 nM
dasatinib: Cc1nc(Nc2ncc(C(=O)Nc3c(C)cccc3Cl)s2)cc(N2CCN(CCO)CC2)n1 at 4 nM
temozolomide: Cn1nnc2c(C(N)=O)ncn2c1=O at 2000 nM
PLX4720: CCCS(=O)(=O)Nc1ccc(F)c(C(=O)c2c[nH]c3ncc(Cl)cc23)c1F at 80 nM
PF-562271: CN(c1ncccc1CNc1nc(Nc2ccc3c(c2)CC(=O)N3)ncc1C(F)(F)F)S(C)(=O)=O at 80 nM
KU-0063794: COc1ccc(-c2ccc3c(N4CCOCC4)nc(N4C[C@@H](C)O[C@@H](C)C4)nc3n2)cc1CO at 20 nM
palbociclib: CC(=O)c1c(C)c2cnc(Nc3ccc(N4CCNCC4)cn3)nc2n(C2CCCC2)c1=O at 40 nM
YM155: COCC[n+]1c2c(n(Cc3cnccn3)c1C)C(=O)c1ccccc1C2=O at 0.4 nM
fingolimod: CCCCCCCCc1ccc(CCC(N)(CO)CO)cc1 at 2000 nM

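The test systems are human melanoma cell lines, treated with a pair of drugs for 72 h and then stained and imaged. Each value is the count of nuclei relative to DMSO-treated wells, in %, so that 100 equals the control. Concentrations were fixed for each drug; these are the lower of two levels, a fifth of the higher. The file gives one value for each pair and line, without errors, so small differences may be noise.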
This is part of the screen, not chosen by result.

| # | Pair | COLO 829 |
|---|---|---|
| 1 | dasatinib + temozolomide | 64.8 |
| 2 | enzastaurin + palbociclib | 109 |
| 3 | YM155 + PLX4720 | 93.2 |
| 4 | PF-562271 + fingolimod | 88.3 |
| 5 | PLX4720 + dasatinib | 89.0 |
| 6 | PLX4720 + enzastaurin | 144 |
| 7 | KU-0063794 + YM155 | 56.5 |
| 8 | PF-562271 + dasatinib | 64.2 |
| 9 | VX-702 + enzastaurin | 103 |
| 10 | YM155 + palbociclib | 84.9 |
| 11 | temozolomide + PF-562271 | 76.2 |
| 12 | YM155 + dasatinib | 55.3 |
| 13 | enzastaurin + PF-562271 | 101 |
| 14 | PLX4720 + fingolimod | 112 |
| 15 | temozolomide + enzastaurin | 86.7 |
| 16 | KU-0063794 + dasatinib | 89.7 |
| 17 | fingolimod + dasatinib | 70.7 |
| 18 | KU-0063794 + palbociclib | 89.8 |
| 19 | fingolimod + temozolomide | 89.6 |
| 20 | PF-562271 + PLX4720 | 111 |
| 21 | VX-702 + fingolimod | 98.8 |
| 22 | PLX4720 + temozolomide | 110 |
| 23 | dasatinib + palbociclib | 70.7 |
| 24 | temozolomide + VX-702 | 107 |
| 25 | palbociclib + temozolomide | 84.7 |
| 26 | fingolimod + palbociclib | 99.5 |
| 27 | PF-562271 + VX-702 | 71.4 |
| 28 | dasatinib + VX-702 | 84.0 |
| 29 | fingolimod + KU-0063794 | 83.9 |
| 30 | PLX4720 + VX-702 | 126 |
| 31 | YM155 + PF-562271 | 69.6 |
| 32 | fingolimod + YM155 | 79.3 |
| 33 | VX-702 + KU-0063794 | 87.6 |
| 34 | enzastaurin + fingolimod | 98.4 |
| 35 | PF-562271 + KU-0063794 | 81.6 |
| 36 | palbociclib + PF-562271 | 68.5 |
| 37 | KU-0063794 + temozolomide | 92.7 |
| 38 | VX-702 + YM155 | 95.2 |
| 39 | PLX4720 + palbociclib | 110 |

Some entries from above, unchanged:

| Pair | COLO 829 |
|---|---|
| VX-702 + KU-0063794 | 87.6 |
| temozolomide + VX-702 | 107 |
| PLX4720 + temozolomide | 110 |

From a melanoma drug combination screen (doi:10.1371/journal.pone.0140310); values rounded.